For this assay, the target named is low-density lipoprotein receptor-related protein 1 (LRP1), full-length, purified from human placenta (human) (UniProt Q07954). In words: SPR; LRP1 amine-coupled to CM5 chip; 1 uM RAP co-injected with 500 nM S1 subunit; both purified. Background: SPR reads the build-up and loss of mass on a sensor chip optically.

Sequences of proteins named here, by UniProt entry; tags and fusion partners are left off. Residues count along the entry.
UniProt Q07954, residues 20-4544: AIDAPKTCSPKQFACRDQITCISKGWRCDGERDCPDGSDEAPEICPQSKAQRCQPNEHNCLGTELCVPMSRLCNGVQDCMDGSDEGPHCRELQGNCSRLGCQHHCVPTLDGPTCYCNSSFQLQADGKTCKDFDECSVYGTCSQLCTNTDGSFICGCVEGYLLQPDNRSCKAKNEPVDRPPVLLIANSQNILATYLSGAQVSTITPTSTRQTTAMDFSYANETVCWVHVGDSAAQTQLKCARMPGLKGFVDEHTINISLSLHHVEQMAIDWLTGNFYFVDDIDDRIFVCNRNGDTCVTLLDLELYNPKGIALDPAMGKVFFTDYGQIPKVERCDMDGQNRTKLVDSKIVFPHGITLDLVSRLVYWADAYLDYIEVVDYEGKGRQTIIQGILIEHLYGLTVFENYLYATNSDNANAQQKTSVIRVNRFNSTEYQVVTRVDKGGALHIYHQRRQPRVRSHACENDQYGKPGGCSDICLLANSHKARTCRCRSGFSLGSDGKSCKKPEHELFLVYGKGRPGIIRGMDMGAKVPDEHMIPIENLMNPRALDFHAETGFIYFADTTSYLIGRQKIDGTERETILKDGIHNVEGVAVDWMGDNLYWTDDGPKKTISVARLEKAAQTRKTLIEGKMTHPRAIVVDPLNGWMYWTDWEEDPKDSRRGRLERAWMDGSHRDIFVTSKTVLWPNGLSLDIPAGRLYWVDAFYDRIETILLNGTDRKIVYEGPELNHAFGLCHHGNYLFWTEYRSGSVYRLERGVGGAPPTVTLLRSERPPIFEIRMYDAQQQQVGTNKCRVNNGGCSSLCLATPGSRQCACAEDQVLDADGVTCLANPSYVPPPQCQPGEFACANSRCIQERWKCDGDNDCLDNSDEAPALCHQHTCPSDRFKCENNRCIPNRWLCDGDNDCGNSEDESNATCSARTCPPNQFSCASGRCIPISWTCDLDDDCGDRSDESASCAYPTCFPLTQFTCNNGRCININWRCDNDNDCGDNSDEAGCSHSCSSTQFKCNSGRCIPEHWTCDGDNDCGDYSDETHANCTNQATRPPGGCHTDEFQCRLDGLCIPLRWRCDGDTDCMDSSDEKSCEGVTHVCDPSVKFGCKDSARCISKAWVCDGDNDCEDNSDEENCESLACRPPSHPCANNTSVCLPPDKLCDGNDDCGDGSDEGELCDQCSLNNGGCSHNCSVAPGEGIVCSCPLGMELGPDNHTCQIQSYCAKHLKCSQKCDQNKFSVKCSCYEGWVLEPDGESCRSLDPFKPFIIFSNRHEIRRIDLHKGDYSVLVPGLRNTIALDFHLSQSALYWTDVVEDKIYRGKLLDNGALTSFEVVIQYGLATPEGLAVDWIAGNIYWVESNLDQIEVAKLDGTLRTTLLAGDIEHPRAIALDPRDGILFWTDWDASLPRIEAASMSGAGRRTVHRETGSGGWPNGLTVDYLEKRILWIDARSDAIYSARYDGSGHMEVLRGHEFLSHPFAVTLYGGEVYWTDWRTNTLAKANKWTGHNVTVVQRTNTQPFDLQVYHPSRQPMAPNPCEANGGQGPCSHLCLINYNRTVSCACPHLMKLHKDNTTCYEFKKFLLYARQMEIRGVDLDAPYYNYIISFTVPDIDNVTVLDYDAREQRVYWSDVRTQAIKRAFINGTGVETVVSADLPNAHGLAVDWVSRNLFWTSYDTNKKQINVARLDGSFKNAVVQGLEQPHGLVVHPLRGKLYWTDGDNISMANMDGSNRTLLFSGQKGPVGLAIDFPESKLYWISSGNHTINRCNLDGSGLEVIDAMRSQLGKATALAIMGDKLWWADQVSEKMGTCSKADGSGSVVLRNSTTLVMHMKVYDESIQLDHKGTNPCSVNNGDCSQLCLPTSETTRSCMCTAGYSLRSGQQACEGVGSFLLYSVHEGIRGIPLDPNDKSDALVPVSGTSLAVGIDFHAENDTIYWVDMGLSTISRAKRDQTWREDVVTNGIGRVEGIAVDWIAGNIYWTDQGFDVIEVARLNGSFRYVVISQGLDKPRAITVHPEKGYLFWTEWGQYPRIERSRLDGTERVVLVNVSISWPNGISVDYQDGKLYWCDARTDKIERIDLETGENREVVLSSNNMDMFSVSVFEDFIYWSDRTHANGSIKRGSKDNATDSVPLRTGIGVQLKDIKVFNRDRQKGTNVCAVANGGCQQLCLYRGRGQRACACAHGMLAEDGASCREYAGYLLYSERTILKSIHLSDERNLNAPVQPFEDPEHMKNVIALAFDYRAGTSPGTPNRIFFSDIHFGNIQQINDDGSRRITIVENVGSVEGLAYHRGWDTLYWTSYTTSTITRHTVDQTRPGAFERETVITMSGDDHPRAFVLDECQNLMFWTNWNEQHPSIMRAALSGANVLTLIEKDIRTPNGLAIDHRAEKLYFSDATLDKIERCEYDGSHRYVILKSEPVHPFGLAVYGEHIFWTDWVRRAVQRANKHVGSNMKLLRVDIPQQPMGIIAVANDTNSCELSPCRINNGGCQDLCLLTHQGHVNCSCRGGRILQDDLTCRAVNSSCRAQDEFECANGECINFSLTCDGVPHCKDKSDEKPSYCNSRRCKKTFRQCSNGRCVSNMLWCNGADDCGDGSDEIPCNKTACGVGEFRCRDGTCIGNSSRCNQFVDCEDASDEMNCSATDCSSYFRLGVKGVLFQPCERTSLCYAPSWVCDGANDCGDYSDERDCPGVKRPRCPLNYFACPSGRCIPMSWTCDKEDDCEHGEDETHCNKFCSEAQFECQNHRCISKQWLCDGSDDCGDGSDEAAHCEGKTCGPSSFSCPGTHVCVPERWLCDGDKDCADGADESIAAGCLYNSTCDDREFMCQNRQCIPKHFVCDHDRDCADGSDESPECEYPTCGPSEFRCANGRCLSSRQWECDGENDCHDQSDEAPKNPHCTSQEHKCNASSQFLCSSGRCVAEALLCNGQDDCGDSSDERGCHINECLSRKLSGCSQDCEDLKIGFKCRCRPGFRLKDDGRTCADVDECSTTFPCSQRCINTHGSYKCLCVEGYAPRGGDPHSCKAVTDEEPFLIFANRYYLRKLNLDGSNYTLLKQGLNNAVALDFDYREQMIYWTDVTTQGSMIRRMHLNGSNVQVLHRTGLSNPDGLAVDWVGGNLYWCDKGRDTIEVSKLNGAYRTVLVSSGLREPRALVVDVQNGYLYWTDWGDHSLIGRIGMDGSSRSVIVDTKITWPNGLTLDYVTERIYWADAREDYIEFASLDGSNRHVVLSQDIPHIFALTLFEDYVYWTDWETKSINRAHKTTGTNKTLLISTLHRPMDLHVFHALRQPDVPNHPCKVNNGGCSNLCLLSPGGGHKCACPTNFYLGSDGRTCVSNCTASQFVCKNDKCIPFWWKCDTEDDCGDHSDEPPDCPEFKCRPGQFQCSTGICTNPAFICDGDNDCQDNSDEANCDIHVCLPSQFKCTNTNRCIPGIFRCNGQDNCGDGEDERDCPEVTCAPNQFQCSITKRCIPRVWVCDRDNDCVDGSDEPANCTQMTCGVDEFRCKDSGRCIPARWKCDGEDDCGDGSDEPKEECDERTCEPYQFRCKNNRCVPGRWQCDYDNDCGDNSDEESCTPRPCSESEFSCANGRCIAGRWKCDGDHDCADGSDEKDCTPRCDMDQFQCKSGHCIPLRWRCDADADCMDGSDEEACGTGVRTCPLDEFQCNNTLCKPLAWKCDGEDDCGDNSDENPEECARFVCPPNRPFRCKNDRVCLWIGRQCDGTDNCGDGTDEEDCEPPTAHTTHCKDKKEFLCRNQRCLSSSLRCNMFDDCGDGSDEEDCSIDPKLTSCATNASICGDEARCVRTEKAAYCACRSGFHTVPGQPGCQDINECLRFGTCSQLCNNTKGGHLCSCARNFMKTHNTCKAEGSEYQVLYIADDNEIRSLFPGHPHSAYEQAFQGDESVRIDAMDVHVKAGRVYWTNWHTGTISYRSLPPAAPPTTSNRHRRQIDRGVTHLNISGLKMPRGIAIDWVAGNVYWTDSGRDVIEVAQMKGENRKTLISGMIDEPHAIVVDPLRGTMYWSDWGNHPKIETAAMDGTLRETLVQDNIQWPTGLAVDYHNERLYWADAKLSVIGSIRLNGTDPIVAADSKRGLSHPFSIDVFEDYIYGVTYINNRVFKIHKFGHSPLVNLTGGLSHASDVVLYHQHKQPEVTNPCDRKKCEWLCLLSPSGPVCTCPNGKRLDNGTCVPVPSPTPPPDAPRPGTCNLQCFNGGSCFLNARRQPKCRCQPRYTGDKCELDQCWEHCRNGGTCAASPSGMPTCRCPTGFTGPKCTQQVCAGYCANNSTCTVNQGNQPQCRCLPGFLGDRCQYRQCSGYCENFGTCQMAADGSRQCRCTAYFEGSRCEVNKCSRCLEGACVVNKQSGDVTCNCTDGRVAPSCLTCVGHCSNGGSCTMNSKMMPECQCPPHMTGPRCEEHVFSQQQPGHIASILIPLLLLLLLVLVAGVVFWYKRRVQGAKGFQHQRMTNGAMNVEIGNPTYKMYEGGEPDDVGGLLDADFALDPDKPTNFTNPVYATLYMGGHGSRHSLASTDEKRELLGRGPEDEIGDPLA
UniProt P30533, residues 35-357: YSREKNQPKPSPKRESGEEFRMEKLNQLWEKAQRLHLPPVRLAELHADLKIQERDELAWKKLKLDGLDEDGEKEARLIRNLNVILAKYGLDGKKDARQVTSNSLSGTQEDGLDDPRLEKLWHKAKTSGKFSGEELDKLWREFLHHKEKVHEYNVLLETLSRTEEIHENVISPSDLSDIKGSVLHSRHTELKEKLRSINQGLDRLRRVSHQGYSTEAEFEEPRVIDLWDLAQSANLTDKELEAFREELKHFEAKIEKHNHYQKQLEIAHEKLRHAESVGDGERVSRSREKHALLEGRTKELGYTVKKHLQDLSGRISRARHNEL

No constants are given. Whether binding was seen depends on the method and setting. Some results given as binding are weak or reduced against the parent protein; the word gives no strength.

As to “receptor-associated protein (RAP) (from UniProt P30533 35-357)”, the binding entry is “binds”.

The values above are taken from paper PMC12192683.
